This experiment has as its target T1, TMEM100 (transmembrane protein 100), precipitated with anti-TMEM100 (mouse (endogenous in PVECs)) (UniProt Q9CQG9).
T1 sequence: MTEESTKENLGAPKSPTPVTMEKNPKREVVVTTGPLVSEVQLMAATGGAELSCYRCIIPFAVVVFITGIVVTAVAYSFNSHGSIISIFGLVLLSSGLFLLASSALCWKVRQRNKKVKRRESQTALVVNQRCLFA
The experiment can be described thus: co-IP.

The values below come from paper doi:10.1101/2025.10.24.684325.

These are yes or no findings as the source states them, for the method shown. Binding seen in cells or lysates may run through a third protein. Some binding calls cover weakened binding; strength is not graded here.

B1: PRDX1 (protein, UniProt P35700 1-199)
chain: MSSGNAKIGYPAPNFKATAVMPDGQFKDISLSEYKGKYVVFFFYPLDFTFVCPTEIIAFSDRADEFKKLNCQVIGASVDSHFCHLAWINTPKKQGGLGPMNIPLISDPKRTIAQDYGVLKADEGISFRGLFIIDDKGILRQITINDLPVGRSVDEIIRLVQAFQFTDKHGEVCPAGWKPGSDTIKPDVNKSKEYFSKQK
Take B1: the binding result is reported as “binds”.
